PubChem BioAssay AID1259254, NCATS, 2017
The whole screen tested about 59,000 reagents; shown is a random part of them. About 1,550 of them (2.6%) count as active. 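G2 share is only a proxy for re-replication; each gene was hit by three separate siRNAs, and active genes were retested.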 The raw values are shown without normalisation. Unmarked entries are inactive. Reagents against one gene are numbered here. Not stated in the record: the amount of reagent.

- Purpose: 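Genome-wide screen for genes that prevent DNA re-replication in cancer cells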 (primary screen)
- System: human HCT116 colorectal cancer cells
- Knock-down reagent: single siRNA against human genes
- Time to read-out: 3 days
- Read-out: 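Nuclei stained with Hoechst and imaged; cell-cycle phase assigned by DNA content; G2 share scaled per plate, non-targeting siRNA 0%, GMNN siRNA 100%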
- Scale: G2 robust z-score and G2 cells, % of GMNN control: higher = more G2 cells, more excess DNA replication; raw share of cells in G2: higher = larger share of cells with G2 DNA content
- Call rule: 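Active siRNAs have a G2 robust z of 5 or more median absolute deviations over the median, which in these data means about 38% or higher of GMNN control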

The first 8 records as a preview:
| gene | siRNA no. | G2 robust z-score | G2 cells, % of GMNN control | raw share of cells in G2 (%) |
| --- | --- | --- | --- | --- |
| MCHR1 (melanin concentrating hormone receptor 1) | 1 | -0.326 | 0.671 | 6.08 |
| MCHR1 (melanin concentrating hormone receptor 1) | 2 | 0.0302 | 3.18 | 5.63 |
| MCHR1 (melanin concentrating hormone receptor 1) | 3 | 0.587 | 7.1 | 5.45 |
| ITGA6 (integrin subunit alpha 6) | 1 | 1.29 | 12.1 | 9.43 |
| ITGA6 (integrin subunit alpha 6) | 2 | -1.6 | -8.31 | 2.52 |
| ITGA6 (integrin subunit alpha 6) | 3 | -0.287 | 0.951 | 4.55 |
| WRAP73 (WD repeat containing, antisense to TP73) | 1 | -0.81 | -2.73 | 2.81 |
| WRAP73 (WD repeat containing, antisense to TP73) | 2 | 1.13 | 10.9 | 8.67 |

The listing, from the first entry:
| gene | siRNA no. | G2 robust z-score | G2 cells, % of GMNN control | raw share of cells in G2 (%) |
| --- | --- | --- | --- | --- |
| MCHR1 (melanin concentrating hormone receptor 1) | 1 | -0.326 | 0.671 | 6.08 |
| MCHR1 (melanin concentrating hormone receptor 1) | 2 | 0.0302 | 3.18 | 5.63 |
| MCHR1 (melanin concentrating hormone receptor 1) | 3 | 0.587 | 7.1 | 5.45 |
| ITGA6 (integrin subunit alpha 6) | 1 | 1.29 | 12.1 | 9.43 |
| ITGA6 (integrin subunit alpha 6) | 2 | -1.6 | -8.31 | 2.52 |
| ITGA6 (integrin subunit alpha 6) | 3 | -0.287 | 0.951 | 4.55 |
| WRAP73 (WD repeat containing, antisense to TP73) | 1 | -0.81 | -2.73 | 2.81 |
| WRAP73 (WD repeat containing, antisense to TP73) | 2 | 1.13 | 10.9 | 8.67 |
| WRAP73 (WD repeat containing, antisense to TP73) | 3 | 0.832 | 8.82 | 6.03 |
| LONRF1 (LON peptidase N-terminal domain and ring finger 1) | 1 | -0.524 | -0.717 | 5.34 |
| LONRF1 (LON peptidase N-terminal domain and ring finger 1) | 2 | 0.586 | 7.09 | 8.01 |
| LONRF1 (LON peptidase N-terminal domain and ring finger 1) | 3 | -0.192 | 1.62 | 5.09 |
| POC1A (POC1 centriolar protein A) | 1 | 0.393 | 5.73 | 5.3 |
| POC1A (POC1 centriolar protein A) | 2 | 5.12 (active) | 39 | 19.1 |
| POC1A (POC1 centriolar protein A) | 3 | 6.71 (active) | 50.2 | 25.7 |
| EPHA2 (EPH receptor A2) | 1 | 1.13 | 10.9 | 9.21 |
| EPHA2 (EPH receptor A2) | 2 | 0.613 | 7.28 | 7.86 |
| EPHA2 (EPH receptor A2) | 3 | -1.16 | -5.18 | 2.2 |
| BUB3 (BUB3 mitotic checkpoint protein) | 1 | 0.00944 | 3.03 | 6.48 |
| BUB3 (BUB3 mitotic checkpoint protein) | 2 | 2.1 | 17.7 | 10.9 |
| BUB3 (BUB3 mitotic checkpoint protein) | 3 | 9.9 (active) | 72.6 | 29 |
| MCCC1 (methylcrotonyl-CoA carboxylase subunit 1) | 1 | -1.15 | -5.14 | 4.18 |
| MCCC1 (methylcrotonyl-CoA carboxylase subunit 1) | 2 | 6.74 (active) | 50.4 | 22.5 |
| MCCC1 (methylcrotonyl-CoA carboxylase subunit 1) | 3 | 0.456 | 6.18 | 6.91 |
| SNRPA1 (small nuclear ribonucleoprotein polypeptide A') | 1 | 0.102 | 3.69 | 6.92 |
| SNRPA1 (small nuclear ribonucleoprotein polypeptide A') | 2 | 0.102 | 3.68 | 5.81 |
| SNRPA1 (small nuclear ribonucleoprotein polypeptide A') | 3 | 3.27 | 26 | 12.5 |
| TMF1 (TATA element modulatory factor 1) | 1 | -0.644 | -1.57 | 4.44 |
| TMF1 (TATA element modulatory factor 1) | 2 | 1.66 | 14.7 | 9.71 |
| TMF1 (TATA element modulatory factor 1) | 3 | 0.303 | 5.1 | 5.15 |
| HYCC2 (hyccin PI4KA lipid kinase complex subunit 2) | 1 | -0.403 | 0.129 | 3.69 |
| HYCC2 (hyccin PI4KA lipid kinase complex subunit 2) | 2 | -0.198 | 1.57 | 3.65 |
| HYCC2 (hyccin PI4KA lipid kinase complex subunit 2) | 3 | 0.0804 | 3.53 | 4.34 |
| EEF1AKMT3 (EEF1A lysine methyltransferase 3) | 1 | 0.885 | 9.2 | 7.87 |
| EEF1AKMT3 (EEF1A lysine methyltransferase 3) | 2 | 1.67 | 14.7 | 10.3 |
| EEF1AKMT3 (EEF1A lysine methyltransferase 3) | 3 | -0.659 | -1.67 | 2.72 |
| GABRE (gamma-aminobutyric acid type A receptor subunit epsilon) | 1 | -0.254 | 1.18 | 5.72 |
| GABRE (gamma-aminobutyric acid type A receptor subunit epsilon) | 2 | -0.47 | -0.341 | 4.67 |
| GABRE (gamma-aminobutyric acid type A receptor subunit epsilon) | 3 | 0.0412 | 3.26 | 5.65 |
| TBC1D22A (TBC1 domain family member 22A) | 1 | -1.05 | -4.41 | 4.17 |
| TBC1D22A (TBC1 domain family member 22A) | 2 | 0.348 | 5.42 | 5.99 |
| TBC1D22A (TBC1 domain family member 22A) | 3 | -0.634 | -1.49 | 3.5 |
| DENND3 (DENN domain containing 3) | 1 | 0.0099 | 3.04 | 6.18 |
| DENND3 (DENN domain containing 3) | 2 | 1.48 | 13.4 | 9.66 |
| DENND3 (DENN domain containing 3) | 3 | -0.385 | 0.261 | 3.27 |
| SPATA13 (spermatogenesis associated 13) | 1 | 3.8 | 29.7 | 14.3 |
| SPATA13 (spermatogenesis associated 13) | 2 | -0.664 | -1.71 | 2.55 |
| SPATA13 (spermatogenesis associated 13) | 3 | 0.675 | 7.72 | 5.66 |
| EIF3J (eukaryotic translation initiation factor 3 subunit J) | 1 | -0.552 | -0.917 | 4.12 |
| EIF3J (eukaryotic translation initiation factor 3 subunit J) | 2 | 0.558 | 6.89 | 7.68 |
| EIF3J (eukaryotic translation initiation factor 3 subunit J) | 3 | 0.828 | 8.79 | 7.86 |
| ARHGEF25 (Rho guanine nucleotide exchange factor 25) | 1 | 0.515 | 6.59 | 6.73 |
| ARHGEF25 (Rho guanine nucleotide exchange factor 25) | 2 | -1.49 | -7.55 | 1.08 |
| ARHGEF25 (Rho guanine nucleotide exchange factor 25) | 3 | 0.474 | 6.3 | 3.66 |
| RAB29 (RAB29, member RAS oncogene family) | 1 | -0.836 | -2.92 | 4.24 |
| RAB29 (RAB29, member RAS oncogene family) | 2 | 1.37 | 12.6 | 10.3 |
| RAB29 (RAB29, member RAS oncogene family) | 3 | -0.584 | -1.14 | 4.3 |
| DMRTA2 (DMRT like family A2) | 1 | 0.815 | 8.7 | 7.39 |
| DMRTA2 (DMRT like family A2) | 2 | 3.66 | 28.7 | 17.5 |
| DMRTA2 (DMRT like family A2) | 3 | -0.747 | -2.29 | 3.54 |
| IFNLR1 (interferon lambda receptor 1) | 1 | 0.419 | 5.92 | 7.19 |
| IFNLR1 (interferon lambda receptor 1) | 2 | 2.45 | 20.2 | 12.1 |
| IFNLR1 (interferon lambda receptor 1) | 3 | -0.916 | -3.48 | 4.3 |
| ZNF815P (zinc finger protein 815, pseudogene) | 1 | -0.807 | -2.71 | 3.67 |
| ZNF815P (zinc finger protein 815, pseudogene) | 2 | 0.279 | 4.93 | 5.6 |
| ZNF815P (zinc finger protein 815, pseudogene) | 3 | -1.07 | -4.55 | 1.71 |
| LINC00174 (long independently transcribed non-coding RNA 174) | 1 | -0.0676 | 2.49 | 4.55 |
| LINC00174 (long independently transcribed non-coding RNA 174) | 2 | -0.448 | -0.187 | 2.97 |
| LINC00174 (long independently transcribed non-coding RNA 174) | 3 | -0.477 | -0.386 | 3.15 |
| SLC35A2 | 1 | 1.99 | 17 | 12.8 |
| SLC35A2 | 2 | 0.728 | 8.09 | 7.27 |
| SLC35A2 | 3 | -0.472 | -0.352 | 4.36 |
| SPATA19 (spermatogenesis associated 19) | 1 | -0.712 | -2.04 | 2.84 |
| SPATA19 (spermatogenesis associated 19) | 2 | 0.0889 | 3.59 | 4.36 |
| SPATA19 (spermatogenesis associated 19) | 3 | 1.73 | 15.1 | 8.02 |
| AKTIP (AKT interacting protein) | 1 | 0.178 | 4.22 | 7.4 |
| AKTIP (AKT interacting protein) | 2 | 0.247 | 4.71 | 6.01 |
| AKTIP (AKT interacting protein) | 3 | 0.317 | 5.2 | 6.11 |
| RNASE2 (ribonuclease A family member 2) | 1 | 1.94 | 16.6 | 10.7 |
| RNASE2 (ribonuclease A family member 2) | 2 | 0.465 | 6.24 | 7.06 |
| RNASE2 (ribonuclease A family member 2) | 3 | 0.499 | 6.47 | 6.3 |
| TAS2R38 (taste 2 receptor member 38) | 1 | 0.135 | 3.92 | 6.64 |
| TAS2R38 (taste 2 receptor member 38) | 2 | 1.43 | 13.1 | 9.38 |
| TAS2R38 (taste 2 receptor member 38) | 3 | -0.65 | -1.61 | 2.77 |
| LOC728283 (retired record) | 1 | -0.323 | 0.697 | 3.81 |
| LOC728283 (retired record) | 2 | -1.24 | -5.75 | 0.846 |
| LOC728283 (retired record) | 3 | -0.983 | -3.95 | 2.1 |
